In PubChem BioAssay AID504467 (National Center for Advancing Translational Sciences (NCATS), 2011):
Hit rate of the full screen: of about 330,000 compounds, about 7,700 (2.3%) were called active. Inconclusive results, whose numbers are uncertain, are shown with a selection of clear calls. Calls follow the shape of the dose curve; as a rule, active = well fitted inhibition curve with a large enough effect; inconclusive = small, poorly fitted or top-dose-only effect, or effect the other way; inactive = flat fitted curve, though single readings scatter. Potencies of inconclusive entries are doubtful fits and often do not repeat.

Assay: qHTS screen for small molecules that inhibit ELG1-dependent DNA repair in human embryonic kidney (HEK293T) cells expressing luciferase-tagged ELG1; also: nearly all actives have a fitted effect of over 55% in size
Details: HEK293T ELG1-luciferase reporter, luminescence, 16 h, DNA damage induced by 5-fluorouridine; activity change, negative = inhibition: at 46.1 µM (top of the series)
Method in brief: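 5-Fluorouridine DNA damage + compound/DMSO, 2,000 cells/well, 16 h, 37 °C/5% CO2. ONE-Glo, 30 min RT, luminescence. Readout = decrease in reporter signal.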
% is scaled to controls: 0 for no effect and ±100 for the full control effect; potency is read from the fitted curve at half-maximal effect.

SMILES	Potency	activity change, negative = inhibition
CN(C)c1cc(NC(=O)CN2CCCC2)c2ccccc2n1	inconclusive: 29.1 µM [inhibitor, partial curve, poor fit]	–
COc1ccc(NS(=O)(=O)c2cccc(NC(=O)c3ccc(S(=O)(=O)N4CCCCCC4)cc3)c2)cc1	inconclusive: 18.4 µM [inhibitor, single point]	–
COc1ccc(C(C)(C)C)cc1NC(=O)Nc1ccc2c(c1)OCO2	inconclusive: 20.6 µM [inhibitor, partial curve, poor fit]	–
COc1ccccc1N(CC(O)COc1ccccc1)S(=O)(=O)c1ccccc1 (centres undefined)	–	inactive: -17.2%
N#CCC(=O)Nc1ccc(C(=O)NCc2cccc(Cl)c2)cc1	–	inactive: -8.47%
COCc1n[nH]c(=S)n1-c1ccccc1	–	inactive: 8.21%
COc1ccc(Cn2nnnc2CN(Cc2cc3ccc(C)cc3[nH]c2=O)C2CCCC2)cc1	active: 12.6 µM	–
COc1ccc(/C=N/NC(=O)CNC(=O)c2ccc(S(=O)(=O)N3CCOCC3)cc2)cc1OC	inconclusive: 25.9 µM [activator, partial curve, poor fit]	–
O=C(Cn1cnc2ccccc2c1=O)NCCCN1CCCC1=O	–	inactive: 20.1%
CC(C)CNc1nc(SCC(=O)Nc2ccccc2)nc(N2CCOCC2)n1	inconclusive: 23.1 µM [inhibitor, partial curve]	–
Oc1ccccc1N1CCN(c2ncnc3scc(-c4ccc(F)cc4)c23)CC1	active: 9.2 µM	–
O=C(c1cc(-c2ccncc2)nc2ccc(Cl)cc12)N1CCN(C(=O)C2CCCO2)CC1 (centres undefined)	inconclusive: 18.4 µM [inhibitor, partial curve]	–
COc1ccc(CCn2c(C3CCCCC3)nc3c(c(=O)c4ccccc4n3C)c2=O)cc1OC	inconclusive: 16.4 µM [inhibitor, single point]	–
CS(=O)(=O)c1ccc(N2CCN(S(=O)(=O)c3cccs3)CC2)c([N+](=O)[O-])c1	inconclusive: 11.6 µM [inhibitor, partial curve, poor fit]	–
O=C(NCc1cccnc1)c1cccc(S(=O)(=O)NCc2ccccc2)c1	–	inactive: -4.01%
Cc1nc2scc(-c3ccccc3)c2c(=O)o1	inconclusive: 1.16 µM [activator, single point]	–
COc1ccc(N(CC(=O)Nc2cccc(SC)c2)S(C)(=O)=O)cc1Cl	–	inactive: -19%
Cc1cc(N/N=C/c2ccccc2F)nc(NCc2ccccc2)n1	–	inactive: 0%
Fc1ccccc1OCCSc1ncnc2nc[nH]c12	inconclusive: 14.6 µM [activator, partial curve]	–
COc1ccc(CC(=O)Nc2ccc(S(=O)(=O)N3CCC(C)CC3)cc2)c(OC)c1	inconclusive: 18.3 µM [inhibitor, partial curve, poor fit]	–
CC(C)c1cc(CNC(=O)CCc2nnc(CCCc3ccccc3)o2)on1	inconclusive: 20.6 µM [activator, partial curve]	–
CC(=O)c1cccc(NC(=O)Nc2ccc(C(=O)N3CCCC3)cc2)c1	active: 6.51 µM	–
O=C(CCN1CCN(c2ccccc2)CC1)N/N=C/c1ccccc1OC(F)F	active: 11.6 µM	–
COc1ccccc1C1CC(=O)NC(C)=C1C(=O)OCC1CCCO1 (centres undefined)	–	inactive: 2.67%
COc1ccc2cc(C#N)c(SCC(=O)N3CCCC3)nc2c1	–	inactive: 5.67%

SMILES	Potency	activity change, negative = inhibition
CCNc1ccc(C(=O)OCC(=O)NCc2ccccc2Cl)cc1[N+](=O)[O-]	–	inactive: -1.19%
O=C(c1cc([N+](=O)[O-])ccc1N1CCOCC1)N1CCN(c2ccc([N+](=O)[O-])cc2)CC1	–	inactive: 8.91%
O=c1cc(COc2ccccc2[N+](=O)[O-])nc2sccn12	inconclusive: 5.17 µM [activator, partial curve]	–
O=C(c1ccco1)N(Cc1cccc([N+](=O)[O-])c1)c1ccc(Br)cc1	inconclusive: 18.3 µM [inhibitor, partial curve]	–
O=c1[nH]c(N2CCN(c3ccccc3)CC2)nc2c1CCCC2	inconclusive: 25.9 µM [inhibitor, single point]	–
Cc1cccc2cc(CN(Cc3ccc(F)cc3)C(=O)C(F)(F)F)c3nnnn3c12	inconclusive: 32.6 µM [inhibitor, single point]	–
CCOc1ccc2[nH]c3c(NCCO)ncnc3c2c1	–	inactive: 29.4%
COc1ccc(OC)c(NC(=S)Nc2ccccc2)c1	–	inactive: 7.02%
C/C(N)=C(/C#N)C(=O)COC(=O)c1cc(S(=O)(=O)N2CCCCC2)ccc1C	inconclusive: 18.4 µM [inhibitor, partial curve]	–
COC(=O)Nc1sc2c(c1C(=O)NCc1ccco1)CCC2	–	inactive: -22.6%
Cc1nn(C)c(C(=O)Nc2ccc(S(=O)(=O)NC34CC5CC(CC(C5)C3)C4)cc2)c1Br	inconclusive: 29.1 µM [inhibitor, single point]	–
CCOC(=O)C1CCCN(S(=O)(=O)c2cc3c4c(c2)CCC(=O)N4CCC3)C1 (centres undefined)	–	inactive: -12.4%
OC[C@H]1OC(O)[C@H](O)[C@@H]1O (some centres undefined)	–	inactive: -2.67%
Cc1ccccc1OCC(=O)OCC(=O)c1ccc(OC(=O)c2ccccc2)cc1	–	inactive: 2.56%
CCSc1nc(-c2ccc(OC)cc2)n(-c2nc3ccccc3s2)n1	–	inactive: -7.72%
COc1ccc(CCNc2nc(-c3ccncc3)cs2)cc1OC	inconclusive: 18.3 µM [inhibitor, single point]	–
CCCC[C@H](CN[C@@H](CNC)[C@H](C)CC)NCCC12CCC(CC1)C2	–	inactive: -1.89%
C=CCn1c(SCC(=O)Nc2ccc(OC)cc2)nc2c([nH]c3ccccc32)c1=O	inconclusive: 3.26 µM [inhibitor, partial curve, poor fit]	–
O=C1CC(C(=O)N2CCN(c3ccccc3)CC2)CN1Cc1ccccc1 (centres undefined)	–	inactive: -3.43%
Cn1c(=O)c2c(nc(NCc3ccco3)n2C/C=C/c2ccccc2)n(C)c1=O	active: 4.61 µM	–
COC(=O)c1sccc1NC(=O)/C=C/c1ccc(Cl)cc1Cl	inconclusive: 4.11 µM [activator, partial curve]	–
COc1ccc(/C=N/Nc2nc3ccccc3o2)cc1O	inconclusive: 1.3 µM [activator, partial curve]	–
CC(=O)c1cccc(NC(=O)C2=CC(c3ccc4c(c3)OCO4)=NS(=O)(=O)N2C)c1	–	inactive: -2.96%
C=CCNC(=S)Nc1cccc([N+](=O)[O-])c1	inconclusive: 23.1 µM [inhibitor, single point]	–
Cc1nn(-c2ccc(F)cc2)c(Cl)c1/C=N/NC(=O)c1ccc(O)cc1	–	inactive: -5.77%

SMILES	Potency	activity change, negative = inhibition
COC(=O)C1=C(C)NC(=O)/C1=C\c1cc(C)n(-c2ccccc2C)c1C	active: 20.6 µM	–
CCN(Cc1ccccc1)C(=O)c1ccc(Cl)cc1[N+](=O)[O-]	–	inactive: -3.84%
Cc1ccc(Nc2cc(C)c(O)c(C)c2)cc1	inconclusive: 18.3 µM [activator, single point]	–
COc1ccccc1Nc1nc(N2CCOCC2)nc(N2CCOCC2)n1	active: 1.64 µM	–
C(=N\Nc1ccccn1)/c1ccc2c(c1)OCCO2	inconclusive: 4.61 µM [activator, partial curve]	–
Cc1cc(C(=O)NNc2ccc(F)cc2)no1	active: 2.91 µM	–
CCOc1ccc(NC(=O)COc2ccccc2C(=O)NCc2ccccc2)cc1	inconclusive: 25.1 µM [inhibitor, single point]	–
Cc1nn(C)c(C(=O)Nc2cccc(Nc3ccccc3)c2)c1[N+](=O)[O-]	inconclusive: 20.6 µM [inhibitor, single point]	–
CCOC(=O)c1c(C(=O)OCC)c(C)n(CCc2ccc(OC)c(OC)c2)c1C	active: 14.6 µM	–
COc1ccc(N2C(=O)C3CCCN3C2c2ccccc2Cl)cc1 (centres undefined)	inconclusive: 29.1 µM [activator, single point]	–
CC1Sc2ccc(C(=O)Nc3ccccc3OC(F)F)cc2NC1=O (centres undefined)	inconclusive: 8.2 µM [activator, single point]	–
Cc1ccc(Nc2nnc(SCC(=O)NC3CCCc4ccccc43)s2)cc1 (centres undefined)	inconclusive: 29.1 µM [inhibitor, single point]	–
O=C(CNC(=O)C1CCCCC1)Nc1cc(Cl)cc(Cl)c1	–	inactive: 5.61%
CC(=O)NC(CC(=O)OC(C)C(=O)Nc1ccc(Cl)cn1)c1ccccc1 (centres undefined)	inconclusive: 23.1 µM [activator, single point]	–
COc1cc(SSc2cc(OC)cc([N+](=O)[O-])c2N)c(N)c([N+](=O)[O-])c1	–	inactive: 6.7%
CCOc1ccc(-c2c(C(=O)N/N=C/c3ccc(C)cc3)nnn2-c2nonc2N)cc1	–	inactive: -5.87%
CCC1=NN(C(=O)C(=O)Nc2ccc(OC)cc2)C(O)(C(F)(F)F)C1 (centres undefined)	inconclusive: 1.46 µM [inhibitor, full curve, poor fit]	–
CC(Oc1ccc(Br)cc1)C(=O)Nc1cc(S(=O)(=O)N2CCOCC2)ccc1N1CCCC1 (centres undefined)	inconclusive: 25.9 µM [inhibitor, single point]	–
CCOC(=O)Cn1c(=O)cc(C)c2ccccc21	–	inactive: 15.1%
O=C(NCc1ccc2c(c1)OCO2)c1cc2ccccc2oc1=O	inconclusive: 10.3 µM [activator, partial curve]	–
CCCc1nnc(NC(=O)CCC(=O)N2CCN(C3c4ccccc4-c4ccccc43)CC2)s1	inconclusive: 7.31 µM [inhibitor, partial curve, poor fit]	–
O=C(Cc1ccccc1)n1nc(-c2ccco2)nc1SCc1ccccc1	inconclusive: 14.6 µM [activator, partial curve]	–
CCOC(=O)c1cc2sccc2n1CC(=O)N1CCCc2ccccc21	inconclusive: 18.4 µM [inhibitor, single point]	–
COc1cc(O)oc1C=Nc1ccc(Oc2ccccc2)cc1	inconclusive: 25.9 µM [activator, single point]	–

Filtered by structure, the compounds so far with a cyano group (3)
SMILES	Potency	activity change, negative = inhibition
N#CCC(=O)Nc1ccc(C(=O)NCc2cccc(Cl)c2)cc1	–	inactive: -8.47%
COc1ccc2cc(C#N)c(SCC(=O)N3CCCC3)nc2c1	–	inactive: 5.67%
C/C(N)=C(/C#N)C(=O)COC(=O)c1cc(S(=O)(=O)N2CCCCC2)ccc1C	inconclusive: 18.4 µM [inhibitor, partial curve]	–
